Here are results for three molecules from paper PMC5440813.

Experiment [1] has as its target T1, IDH6-SCYCE (Arabidopsis thaliana) (UniProt Q8LG77).
T1 sequence: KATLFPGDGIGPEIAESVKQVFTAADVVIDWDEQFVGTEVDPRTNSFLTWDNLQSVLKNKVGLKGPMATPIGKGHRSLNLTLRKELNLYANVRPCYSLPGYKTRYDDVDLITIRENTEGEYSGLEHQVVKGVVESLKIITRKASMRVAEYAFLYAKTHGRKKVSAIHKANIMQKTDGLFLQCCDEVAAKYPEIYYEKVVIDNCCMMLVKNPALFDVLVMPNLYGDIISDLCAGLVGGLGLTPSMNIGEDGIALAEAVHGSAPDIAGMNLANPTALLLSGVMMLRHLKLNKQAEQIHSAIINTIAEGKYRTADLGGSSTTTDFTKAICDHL
The experiment can be described thus: split reporter; BiFC: SCYCE- and VYNE-tagged proteins transiently expressed in Arabidopsis mesophyll protoplasts, confocal microscopy with MitoTracker orange.

The target of experiment [2] is T2, ACO2-VYNE (Arabidopsis thaliana) (UniProt Q94A28).
T2 sequence: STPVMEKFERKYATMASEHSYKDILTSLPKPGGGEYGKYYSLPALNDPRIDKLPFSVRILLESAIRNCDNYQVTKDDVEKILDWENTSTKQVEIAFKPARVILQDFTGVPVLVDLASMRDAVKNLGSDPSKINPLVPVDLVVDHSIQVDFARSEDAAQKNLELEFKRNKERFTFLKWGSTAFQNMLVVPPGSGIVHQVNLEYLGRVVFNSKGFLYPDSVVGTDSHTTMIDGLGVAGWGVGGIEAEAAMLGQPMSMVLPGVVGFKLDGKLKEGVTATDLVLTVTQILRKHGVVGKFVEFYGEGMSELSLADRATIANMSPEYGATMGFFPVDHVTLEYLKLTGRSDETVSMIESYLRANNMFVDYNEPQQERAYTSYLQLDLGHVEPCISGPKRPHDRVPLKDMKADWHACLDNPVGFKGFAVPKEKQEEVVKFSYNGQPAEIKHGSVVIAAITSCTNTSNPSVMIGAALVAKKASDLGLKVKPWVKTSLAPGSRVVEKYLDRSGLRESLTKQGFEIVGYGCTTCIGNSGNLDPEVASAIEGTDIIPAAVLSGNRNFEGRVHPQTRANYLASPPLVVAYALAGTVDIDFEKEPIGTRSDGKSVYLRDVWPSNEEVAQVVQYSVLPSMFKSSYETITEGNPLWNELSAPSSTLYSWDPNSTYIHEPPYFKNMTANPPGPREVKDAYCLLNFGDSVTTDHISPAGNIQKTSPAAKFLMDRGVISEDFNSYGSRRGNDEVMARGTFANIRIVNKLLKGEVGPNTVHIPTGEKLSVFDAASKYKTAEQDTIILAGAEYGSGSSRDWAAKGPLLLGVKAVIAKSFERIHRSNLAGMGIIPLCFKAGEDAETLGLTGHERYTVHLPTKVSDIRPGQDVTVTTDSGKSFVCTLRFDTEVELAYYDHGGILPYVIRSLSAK
The experiment is described as above.

Experiment [3] addresses T3, ACO3-VYNE (Arabidopsis thaliana) (UniProt Q9SIB9).
T3 sequence: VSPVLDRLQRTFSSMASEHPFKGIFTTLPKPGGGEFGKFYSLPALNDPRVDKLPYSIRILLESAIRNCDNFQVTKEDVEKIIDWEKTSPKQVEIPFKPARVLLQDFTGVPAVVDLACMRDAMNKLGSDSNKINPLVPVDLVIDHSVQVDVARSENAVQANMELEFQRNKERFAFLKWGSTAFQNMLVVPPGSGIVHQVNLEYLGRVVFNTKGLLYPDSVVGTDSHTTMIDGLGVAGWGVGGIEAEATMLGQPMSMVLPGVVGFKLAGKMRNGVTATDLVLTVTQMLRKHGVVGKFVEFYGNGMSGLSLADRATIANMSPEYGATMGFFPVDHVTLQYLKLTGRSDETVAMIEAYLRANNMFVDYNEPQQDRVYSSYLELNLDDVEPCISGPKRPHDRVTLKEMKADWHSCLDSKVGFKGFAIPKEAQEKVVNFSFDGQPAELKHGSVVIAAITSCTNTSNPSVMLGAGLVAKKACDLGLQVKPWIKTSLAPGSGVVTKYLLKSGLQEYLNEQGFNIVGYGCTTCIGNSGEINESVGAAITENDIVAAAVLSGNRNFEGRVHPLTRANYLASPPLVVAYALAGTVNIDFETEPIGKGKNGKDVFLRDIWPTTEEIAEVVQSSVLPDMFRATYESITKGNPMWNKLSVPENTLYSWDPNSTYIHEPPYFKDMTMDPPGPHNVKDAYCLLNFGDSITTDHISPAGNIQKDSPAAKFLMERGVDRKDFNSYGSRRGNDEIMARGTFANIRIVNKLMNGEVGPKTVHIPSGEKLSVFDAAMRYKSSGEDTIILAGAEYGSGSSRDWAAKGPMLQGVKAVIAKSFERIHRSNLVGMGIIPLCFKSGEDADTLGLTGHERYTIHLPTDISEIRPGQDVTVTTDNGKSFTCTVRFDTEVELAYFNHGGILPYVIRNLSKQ
Described as above.

The target of experiment [4] is T4, aconitase 3 (ACO3) (Arabidopsis thaliana) (UniProt Q9SIB9).
T4 sequence: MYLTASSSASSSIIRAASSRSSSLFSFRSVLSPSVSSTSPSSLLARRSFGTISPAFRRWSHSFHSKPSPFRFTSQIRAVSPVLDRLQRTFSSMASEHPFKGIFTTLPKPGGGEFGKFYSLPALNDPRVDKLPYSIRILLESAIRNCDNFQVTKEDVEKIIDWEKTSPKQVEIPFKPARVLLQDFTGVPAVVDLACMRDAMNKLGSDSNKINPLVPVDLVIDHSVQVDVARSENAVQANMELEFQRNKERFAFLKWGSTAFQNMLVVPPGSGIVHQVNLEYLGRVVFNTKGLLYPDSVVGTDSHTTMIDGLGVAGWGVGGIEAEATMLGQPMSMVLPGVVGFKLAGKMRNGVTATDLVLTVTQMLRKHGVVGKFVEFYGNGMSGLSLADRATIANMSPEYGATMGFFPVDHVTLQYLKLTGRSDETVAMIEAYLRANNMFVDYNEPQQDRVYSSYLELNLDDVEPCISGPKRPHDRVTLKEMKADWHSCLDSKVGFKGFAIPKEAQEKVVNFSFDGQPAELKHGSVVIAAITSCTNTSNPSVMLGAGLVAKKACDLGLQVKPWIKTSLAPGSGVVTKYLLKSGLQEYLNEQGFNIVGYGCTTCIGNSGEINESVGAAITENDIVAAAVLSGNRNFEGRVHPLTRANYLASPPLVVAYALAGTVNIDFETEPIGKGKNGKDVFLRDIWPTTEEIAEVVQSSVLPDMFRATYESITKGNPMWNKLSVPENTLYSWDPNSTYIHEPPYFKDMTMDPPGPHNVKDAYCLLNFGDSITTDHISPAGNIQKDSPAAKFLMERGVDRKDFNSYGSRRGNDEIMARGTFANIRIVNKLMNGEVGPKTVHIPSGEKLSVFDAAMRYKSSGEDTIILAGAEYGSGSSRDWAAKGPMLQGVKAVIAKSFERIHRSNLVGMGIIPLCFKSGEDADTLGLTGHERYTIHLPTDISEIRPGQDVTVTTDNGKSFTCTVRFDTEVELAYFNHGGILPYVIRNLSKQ
The experiment can be described thus: two-hybrid; yeast two-hybrid, mating of AH109 and Y187, plates without Leu, Trp and His with 3-aminotriazole; colonies scored at 3, 5 and 8 days, positive: colonies at 3 or 5 days.

Experiment [5] has as its target T4, aconitase 3 (ACO3) (Arabidopsis thaliana). Put plainly: split reporter; split luciferase (split-LUC) in transfected Arabidopsis mesophyll protoplasts, 96-well plate, ViviRen substrate, relative luminescence; positive: top 10% of scores (3.7).

Results are given in words; binding and its absence hold for the method and conditions named. For some assays here: In cells and extracts the contact can be indirect. Some entries that bind do so weakly or less than the wild type.

B1: ACO3-VYNE (enzyme, UniProt Q9SIB9 79-990)
chain: T3 sequence
As to B1, in experiment [1], the binding entry is “binds”.

B2: CSY4-SCYCE (enzyme, UniProt P20115 17-474)
chain: VQGQQSSLSNSVRWIQMQSSTDLDLKSQLQELIPEQQDRLKKLKSEHGKVQLGNITVDMVIGGMRGMTGLLWETSLLDPEEGIRFRGLSIPECQKVLPTAQSGAEPLPEGLLWLLLTGKVPSKEQVEALSKDLANRAAVPDYVYNAIDALPSTAHPMTQFASGVMALQVQSEFQKAYENGIHKSKFWEPTYEDCLNLIARVPVVAAYVYRRMYKNGDSIPSDKSLDYGANFSHMLGFDDEKVKELMRLYITIHSDHEGGNVSAHTGHLVGSALSDPYLSFAAALNGLAGPLHGLANQEVLLWIKSVVEECGEDISKEQLKEYVWKTLNSGKVIPGYGHGVLRNTDPRYVCQREFALKHLPDDPLFQLVSKLYEVVPPVLTELGKVKNPWPNVDAHSGVLLNHYGLTEARYYTVLFGVSRSLGICSQLIWDRALGLALERPKSVTMDWLEAHCKKASSA
B2: the binding result in experiment [2] and in experiment [3] was “binds” each time.

B3: aconitase 2 (ACO2) (enzyme, UniProt Q94A28 1-995)
chain: MYRRATSGVRSASARLSSSLSRIASSETASVSAPSASSLRNQTNRSKSFSSALRSFRVCSASTRWSHGGSWGSPASLRAQARNSTPVMEKFERKYATMASEHSYKDILTSLPKPGGGEYGKYYSLPALNDPRIDKLPFSVRILLESAIRNCDNYQVTKDDVEKILDWENTSTKQVEIAFKPARVILQDFTGVPVLVDLASMRDAVKNLGSDPSKINPLVPVDLVVDHSIQVDFARSEDAAQKNLELEFKRNKERFTFLKWGSTAFQNMLVVPPGSGIVHQVNLEYLGRVVFNSKGFLYPDSVVGTDSHTTMIDGLGVAGWGVGGIEAEAAMLGQPMSMVLPGVVGFKLDGKLKEGVTATDLVLTVTQILRKHGVVGKFVEFYGEGMSELSLADRATIANMSPEYGATMGFFPVDHVTLEYLKLTGRSDETVSMIESYLRANNMFVDYNEPQQERAYTSYLQLDLGHVEPCISGPKRPHDRVPLKDMKADWHACLDNPVGFKGFAVPKEKQEEVVKFSYNGQPAEIKHGSVVIAAITSCTNTSNPSVMIGAALVAKKASDLGLKVKPWVKTSLAPGSRVVEKYLDRSGLRESLTKQGFEIVGYGCTTCIGNSGNLDPEVASAIEGTDIIPAAVLSGNRNFEGRVHPQTRANYLASPPLVVAYALAGTVDIDFEKEPIGTRSDGKSVYLRDVWPSNEEVAQVVQYSVLPSMFKSSYETITEGNPLWNELSAPSSTLYSWDPNSTYIHEPPYFKNMTANPPGPREVKDAYCLLNFGDSVTTDHISPAGNIQKTSPAAKFLMDRGVISEDFNSYGSRRGNDEVMARGTFANIRIVNKLLKGEVGPNTVHIPTGEKLSVFDAASKYKTAEQDTIILAGAEYGSGSSRDWAAKGPLLLGVKAVIAKSFERIHRSNLAGMGIIPLCFKAGEDAETLGLTGHERYTVHLPTKVSDIRPGQDVTVTTDSGKSFVCTLRFDTEVELAYYDHGGILPYVIRSLSAK
With B3, the binding entry in experiment [4] and in experiment [5] was “binds” each time.
